Laboratory results as given in PubChem BioAssay AID504467 (National Center for Advancing Translational Sciences (NCATS), 2011).
Out of some 330,000 compounds screened, about 7,700 (2.3%) were called active. Inconclusive means that the source gave no clear call. Such entries were picked first, then a sample of the others. Calls come from the whole dose curve; as a rule, active = well fitted inhibition curve with a large enough effect; inconclusive = small, poorly fitted or top-dose-only effect, or effect the other way; inactive = flat fitted curve, though single readings scatter. Potencies of inconclusive entries are doubtful fits and often do not repeat.

Assay: qHTS screen for small molecules that inhibit ELG1-dependent DNA repair in human embryonic kidney (HEK293T) cells expressing luciferase-tagged ELG1; note: nearly all actives have a fitted effect of over 55% in size
Settings: HEK293T ELG1-luciferase reporter, luminescence, 16 h, DNA damage induced by 5-fluorouridine; activity change, negative = inhibition: at 46.1 µM (top of the series)
Summary of the method: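 Reporter activity after DNA damage by 5-fluorouridine is monitored. Compound-treated cells incubate 16 hr at 37 °C, then ONE-Glo is added for 30 min before luminescence reading.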
% is set by controls: 0 for no effect and ±100 for the full control effect; potency is the fitted concentration of half-maximal effect.

| SMILES | Potency | activity change, negative = inhibition |
| --- | --- | --- |
| COc1cc(C2=NOC(C(=O)N3CCCc4ccccc43)C2)cc(OC)c1OC (stereo not drawn) | inconclusive: 9.2 µM [inhibitor, partial curve] | – |
| COC(=O)CNC(=O)CSc1nc2c(sc(=S)n2-c2ccccc2)c(=O)[nH]1 | – | inactive: 1.58% |
| CC(C)=CCOc1ccc2c(C)c(CC(=O)N3C[C@H]4C[C@@H](C3)c3cccc(=O)n3C4)c(=O)oc2c1C | – | inactive: -7.61% |
| CC(C)(C)NS(=O)(=O)c1ccc(NC(=S)NC(=O)C2CC2)cc1 | inconclusive: 29.1 µM [inhibitor, single point] | – |
| c1ccc(CSc2ccc(-c3ccccn3)nn2)nc1 | inconclusive: 2.59 µM [activator, partial curve] | – |
| CNc1nn(-c2cccc(Cl)c2)nc1N | inconclusive: 9.2 µM [activator, partial curve] | – |
| C=CCNC(=O)/C=C/c1c(F)cccc1Cl | inconclusive: 23.1 µM [activator, partial curve] | – |
| COCCn1c(SCC(=O)Nc2ccc(OC)c(S(N)(=O)=O)c2)nc2ccccc21 | inconclusive: 20.6 µM [inhibitor, partial curve] | – |
| CCCCc1nc2cc(C(=O)N3CCCCC3CCO)ccc2o1 (stereo not drawn) | inconclusive: 23.1 µM [activator, partial curve] | – |
| CCOC(=O)C1=C(COC(=O)/C=C/c2cc(OC)c(OC)c(OC)c2)NC(=O)NC1C (stereo not drawn) | inconclusive: 4.61 µM [inhibitor, partial curve] | – |
| Cc1ccc(NC(=S)NNc2ncc(C(F)(F)F)cc2Cl)cc1 | inconclusive: 18.4 µM [inhibitor, single point] | – |
| O=C1CC(N2CCN(S(=O)(=O)c3cccc(C(F)(F)F)c3)CC2)C(=O)N1Cc1ccccc1 (stereo not drawn) | inconclusive: 25.9 µM [inhibitor, single point] | – |
| Cc1cc(Cl)n2c(nc3ccccc32)c1C#N | active: 20.6 µM | – |
| O=C(c1c(Cl)nc2sccn12)N(C(=O)c1c(Cl)nc2sccn12)c1ccc(Cl)cn1 | inconclusive: 3.26 µM [activator, full curve] | – |
| Cn1nnc2cc(C(=O)Nc3ccccc3F)ccc21 | inconclusive: 18.3 µM [activator, single point] | – |
| COc1cccc(C(=O)NCC(=O)N/N=C/c2ccc3c(c2)OCO3)c1 | inconclusive: 25.9 µM [activator, single point] | – |
| COc1ccc(C(=O)NC2CC(C)(C)Cc3c2cnn3-c2ccccc2C)c(OC)c1OC (stereo not drawn) | inconclusive: 29.1 µM [inhibitor, single point] | – |
| CCC(CC)c1nnc(NC(=O)c2ccco2)s1 | – | inactive: 5.76% |
| Cc1cc(C)c(C)c(OCCNCc2ccccc2)c1 | inconclusive: 11.2 µM [inhibitor, single point] | – |
| CCOC(=O)c1c(NC(=O)CN(CC)CC)sc2c1CCC2 | – | inactive: -8.23% |
| O=[N+]([O-])c1ccc(/C=N/N=C/c2ccc([N+](=O)[O-])o2)o1 | inconclusive: 29.1 µM [inhibitor, single point] | – |
| N=c1oc2ccccc2cc1C(=O)Nc1ccc(F)cc1 | inconclusive: 9.2 µM [activator, partial curve] | – |
| O=C(Nc1ccc(Cl)c(Cl)c1)Nc1ccccc1C(=O)O | inconclusive: 2.59 µM [activator, full curve] | – |

| SMILES | Potency | activity change, negative = inhibition |
| --- | --- | --- |
| Cc1ccc(NC(/C=C/N(C)C)=C/C(=O)C(F)(F)F)c(C)c1 | inconclusive: 23.1 µM [inhibitor, partial curve, poor fit] | – |
| Cc1ccc(C(=O)N(C)c2ccc(OCC(=O)N3c4ccc(C)cc4C4CN(C)CCC43)cc2)cc1 (stereo not drawn) | inconclusive: 16.4 µM [activator, partial curve] | – |
| Cc1ccc(NC(=O)c2cc(N3C(=O)CCC3=O)ccc2N2CCOCC2)cc1 | – | inactive: -3.18% |
| CN1/C(=C\C=[N+](C)c2ccccc2)C(C)(C)c2ccccc21 | inconclusive: 1.46 µM [inhibitor, partial curve, poor fit] | – |
| COc1cc(OC)c2c(-c3cccc(-c4ccc(CO)cc4)c3)cc(=O)oc2c1 | inconclusive: 32.6 µM [inhibitor, partial curve, poor fit] | – |
| Cc1ccc(-c2cc3nc(-c4ccccc4)cc(N4CCC5(CC4)OCCO5)n3n2)cc1 | – | inactive: -29.8% |
| CCOC(=O)C(=O)c1c(-c2ccccc2)nc2ccccn12 | – | inactive: -25.6% |
| Cc1sc(NC(=S)NC(=O)c2ccco2)c(C(N)=O)c1C | inconclusive: 4.11 µM [activator, full curve] | – |
| COc1ccc(C(C)=O)cc1COc1cc(C)c(Cl)c(C)c1 | – | inactive: -12.6% |
| C#CCOCCOCCOCCNc1nc(N2CCN(C(=O)CCCCCCCCCCNC(=O)[C@H](CCCCN)n3cc(CCCC(=O)O)nn3)CC2)nc(N2CCN(C(=O)CCCCCCCCCCNC(=O)[C@H](CCCN=C(N)N)n3cc(C[C@@H](C)CC)nn3)CC2)n1 | inconclusive: 31.6 µM [inhibitor, single point] | – |
| CCOC(=O)C1CCN(CC(=O)c2ccc(O)c(C)c2O)CC1 | – | inactive: 8.52% |
| Cc1nc(SCc2ccccc2)n[nH]1 | inconclusive: 16.4 µM [activator, single point] | – |
| COc1ccc(C(=O)Nc2nc3ccccc3[nH]2)cc1S(=O)(=O)N1CCOCC1 | – | inactive: 2.39% |
| CCC(C)NC(=O)CSc1ccc(S(=O)(=O)N(C)C2CCCCC2)cn1 (stereo not drawn) | inconclusive: 16.4 µM [inhibitor, single point] | – |
| CCOC(=O)C1=C(c2ccccc2)Nc2ncnn2C1c1ccc(C(=O)O)cc1 (stereo not drawn) | – | inactive: 0% |
| CCOc1ccc(-c2nnc(NC(=O)c3ccc(OCC(C)C)c(OC)c3)o2)cc1 | – | inactive: 24.9% |
| Cc1ccccc1C(=NC(=O)c1ccccc1)c1ccccc1 | inconclusive: 0.731 µM [inhibitor, partial curve, poor fit] | – |
| O=Nc1c(O)n(Cc2ccc(Cl)c(Cl)c2)c2ccccc12 | – | inactive: -7.99% |
| Fc1cccc(-c2cc3nc4c(c(NCc5ccco5)n3n2)CCCC4)c1 | inconclusive: 3.66 µM [activator, full curve] | – |
| COc1ccc(C2=NCCn3nc4cc(OC)ccc4c32)cc1 | inconclusive: 10 µM [activator, partial curve, poor fit] | – |
| O=C(NCc1ccccc1Cl)C1CCN(S(=O)(=O)N2CCCCCC2)CC1 | active: 18.4 µM | – |
| Cc1cccc(N2CC(C(=O)NCC3COc4ccccc4O3)CC2=O)c1C (stereo not drawn) | – | inactive: -7.16% |
| COc1cc(/C=C/C2=NNC(=O)CC2)cc(OC)c1OC | inconclusive: 18.3 µM [activator, single point] | – |

| SMILES | Potency | activity change, negative = inhibition |
| --- | --- | --- |
| Cc1ccc(C)c(N(CC(=O)NC2CCCC2)C(=O)c2csnn2)c1 | inconclusive: 5.17 µM [activator, full curve, poor fit] | – |
| O=C(NCc1ccncc1)C1CCN(S(=O)(=O)c2ccccc2)CC1 | – | inactive: 22.2% |
| CC1(C)CC(=O)C(C=Nc2ccc(O)c(N=CC3=C(O)CC(C)(C)CC3=O)c2)=C(O)C1 | – | inactive: -8.88% |
| Cc1ccc2cc(C#N)c(SCC(=O)N3CCCc4ccccc43)nc2c1C | – | inactive: 1.06% |
| Cc1ccc2c(C)c(C(=O)Nc3c(C)n(C)n(-c4ccccc4)c3=O)oc2c1C | inconclusive: 23.1 µM [inhibitor, partial curve, poor fit] | – |
| CCCn1nnnc1NCc1cccn1C | inconclusive: 29.1 µM [inhibitor, single point] | – |
| O=C(Nc1ccncc1)C1CCC(CNS(=O)(=O)c2cccc3nsnc23)CC1 (stereo not drawn) | inconclusive: 11.6 µM [inhibitor, partial curve, poor fit] | – |
| COc1ccc(C(C(=O)NC(C)(C)C)N(C(=O)CCC(=O)Nc2ccccn2)C2CCCCC2)cc1 (stereo not drawn) | inconclusive: 0.0164 µM [inhibitor, full curve, poor fit] | – |
| COc1ccc(C2Nc3ccccc3C(=O)N2Cc2ccccc2)cc1COc1ccccn1 (stereo not drawn) | inconclusive: 10.3 µM [inhibitor, partial curve] | – |
| COC(=O)c1ccc(-c2ncc(-c3cccc4ccccc34)o2)cc1 | inconclusive: 18.4 µM [activator, single point] | – |
| Cc1c(O)ccc(C(=O)COc2ccccc2F)c1O | inconclusive: 14.6 µM [activator, partial curve] | – |
| COc1ccc(Cc2nnc(N/N=C/c3ccccc3O)[nH]c2=O)cc1OC | active: 4.11 µM | – |
| N#C/C(=N\Nc1ccccc1)C(=N)N1CCCCCC1 | inconclusive: 8.2 µM [activator, partial curve] | – |
| CC1(C)Cc2ccccc2-c2nnc(SCC(=O)N3CCc4ccccc43)n21 | inconclusive: 18.4 µM [inhibitor, partial curve, poor fit] | – |
| CCOc1ccc(CNc2ncc(-c3ccccc3)n2C)cc1 | – | inactive: 6.88% |
| CSc1nc2nccc(-c3ccc4c(c3)OCO4)n2n1 | inconclusive: 29.1 µM [activator, single point] | – |
| Cc1noc(C)c1C(=O)NCc1ccccc1 | inconclusive: 18.4 µM [activator, partial curve, poor fit] | – |
| O=C(CSC1CCCCC1)Nc1ccccc1Br | inconclusive: 16.4 µM [activator, single point] | – |
| COc1ccc(-c2nc(CS(=O)CC(=O)NCCC3=CCCCC3)c(C)o2)cc1 (stereo not drawn) | inconclusive: 16.4 µM [activator, single point] | – |
| Cc1ccccc1OCc1nc2ccccc2n1C | inconclusive: 12.6 µM [activator, partial curve, poor fit] | – |
| O=S1(=O)CCOC[C@H](CC2CCCCC2)N1Cc1ccccc1 | inconclusive: 32.6 µM [activator, single point] | – |
| CCOC(=O)c1cnc2c(OC)cccc2c1Nc1ccc2c(c1)OCCO2 | inconclusive: 29.1 µM [inhibitor, single point] | – |

Copied from the list:
`Cc1noc(C)c1C(=O)NCc1ccccc1` | Potency: inconclusive: 18.4 µM [activator, partial curve, poor fit]
`COc1ccc(Cc2nnc(N/N=C/c3ccccc3O)[nH]c2=O)cc1OC` | Potency: active: 4.11 µM
`O=S1(=O)CCOC[C@H](CC2CCCCC2)N1Cc1ccccc1` | Potency: inconclusive: 32.6 µM [activator, single point]
